In publication PMC12311189:
These are yes or no findings as the source states them, for the method shown. Binding seen in cells or lysates may run through a third protein. Some binding calls cover weakened binding; strength is not graded here.

Chains of the proteins cited; added tags and fusions are not shown.
UniProt Q92731: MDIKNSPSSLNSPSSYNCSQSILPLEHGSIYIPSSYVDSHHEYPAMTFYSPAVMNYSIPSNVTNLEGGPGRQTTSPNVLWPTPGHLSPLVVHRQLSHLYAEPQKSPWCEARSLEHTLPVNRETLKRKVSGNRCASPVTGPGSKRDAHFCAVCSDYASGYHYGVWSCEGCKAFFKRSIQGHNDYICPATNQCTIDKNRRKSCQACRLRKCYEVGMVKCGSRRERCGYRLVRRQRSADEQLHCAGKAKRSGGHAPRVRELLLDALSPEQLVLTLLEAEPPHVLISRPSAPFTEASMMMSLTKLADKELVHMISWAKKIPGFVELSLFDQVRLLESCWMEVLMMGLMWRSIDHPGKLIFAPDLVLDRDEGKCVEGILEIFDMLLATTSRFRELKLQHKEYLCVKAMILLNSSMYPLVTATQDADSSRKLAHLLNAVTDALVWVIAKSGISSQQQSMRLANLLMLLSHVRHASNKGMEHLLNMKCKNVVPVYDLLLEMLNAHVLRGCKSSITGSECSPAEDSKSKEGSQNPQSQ
UniProt Q9H765: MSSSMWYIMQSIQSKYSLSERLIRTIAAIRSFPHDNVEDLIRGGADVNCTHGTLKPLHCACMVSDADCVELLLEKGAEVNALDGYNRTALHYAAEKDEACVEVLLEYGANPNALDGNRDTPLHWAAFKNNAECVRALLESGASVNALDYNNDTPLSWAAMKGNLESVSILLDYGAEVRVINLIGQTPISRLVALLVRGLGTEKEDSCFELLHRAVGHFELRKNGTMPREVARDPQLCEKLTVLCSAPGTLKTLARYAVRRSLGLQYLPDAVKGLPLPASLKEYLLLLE

Assays:
[1] = target: ERβ, exogenous (transfected) (UniProt Q92731); experiment: co-IP; exogenous (transfected) proteins; lysates in IP buffer, antibody and protein A/G magnetic beads overnight at 4 °C, then immunoblotting; cells and tags not shown
[2] = target: ERβ (estrogen receptor beta), endogenous (human (endogenous in H1793 and H1975)) (UniProt Q92731); experiment: co-IP; endogenous proteins; H1793 and H1975 lysates in IP buffer, immunoprecipitated with antibodies against ERβ or ASB8 and protein A/G magnetic beads overnight at 4 °C, then immunoblotting

| binding [1] | binding [2] | Substance |
| --- | --- | --- |
| binds | – | ASB8, exogenous (transfected) (from UniProt Q9H765 1-288) |
| – | binds | ASB8, endogenous (from UniProt Q9H765 1-288) |
